# Measured values from article PMC8384837.
# Changes are numbered by the printed parent chain. Some of the results follow. For some of these results: At the low end of the ranking the order means little.
# Key:
# Details in all cases: yeast three-hybrid, YBZ-1, SC-Leu-His + 0.5 mM 3-AT, 4 days
# [1] = biological target: T1, PUM1 PUF domain R1-QFR R2-VFQ R7-NPG S863Q + R864F + Q867R + N899V + Y900F + S1079N + N1080P + E1083G (UniProt Q14671)
# T1 sequence: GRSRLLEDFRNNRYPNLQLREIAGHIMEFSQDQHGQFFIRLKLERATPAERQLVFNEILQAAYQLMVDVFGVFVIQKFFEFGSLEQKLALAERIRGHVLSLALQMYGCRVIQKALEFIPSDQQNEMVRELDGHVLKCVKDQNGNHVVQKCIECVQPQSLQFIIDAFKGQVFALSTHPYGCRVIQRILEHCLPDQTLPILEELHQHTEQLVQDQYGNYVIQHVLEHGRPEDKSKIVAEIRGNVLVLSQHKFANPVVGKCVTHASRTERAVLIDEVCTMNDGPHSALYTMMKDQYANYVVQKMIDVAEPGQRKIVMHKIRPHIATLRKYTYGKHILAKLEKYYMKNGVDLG
# [2] = biological target: T2, PUM1 PUF domain R2-VFQ R3-THE R4-TFR N899V + Y900F + C935T + R936H + Q939E + N971T + H972F + Q975R (UniProt Q14671)
# T2 sequence: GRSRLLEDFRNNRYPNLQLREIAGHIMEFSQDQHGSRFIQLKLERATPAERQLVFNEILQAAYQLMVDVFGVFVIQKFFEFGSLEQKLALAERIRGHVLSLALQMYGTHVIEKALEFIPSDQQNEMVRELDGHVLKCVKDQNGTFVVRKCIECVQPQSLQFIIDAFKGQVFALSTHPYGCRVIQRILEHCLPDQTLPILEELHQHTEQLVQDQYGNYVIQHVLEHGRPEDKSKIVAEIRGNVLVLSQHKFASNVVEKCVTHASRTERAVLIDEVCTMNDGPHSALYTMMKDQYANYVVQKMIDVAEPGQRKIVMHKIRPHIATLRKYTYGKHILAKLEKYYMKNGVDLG
# [3] = biological target: T3, PUM1 PUF domain R3-THE R4-TFR C935T + R936H + Q939E + N971T + H972F + Q975R (Homo sapiens) (UniProt Q14671)
# T3 sequence: T2 sequence with V72N, F73Y
# [4] = biological target: T4, PUM1 PUF domain R4-ACC N971A + H972C + Q975C (Homo sapiens) (UniProt Q14671)
# T4 sequence: T2 sequence with V72N, F73Y, T108C, H109R, E112Q, T144A, F145C, R148C
# [5] = biological target: T5, PUM1 PUF domain R4-AGY N971A + H972G + Q975Y (UniProt Q14671)
# T5 sequence: T2 sequence with V72N, F73Y, T108C, H109R, E112Q, T144A, F145G, R148Y
# [6] = biological target: T6, PUM1 PUF domain R4-ALC N971A + H972L + Q975C (Homo sapiens) (UniProt Q14671)
# T6 sequence: T2 sequence with V72N, F73Y, T108C, H109R, E112Q, T144A, F145L, R148C
# [7] = biological target: T7, PUM1 PUF domain R4-ALG N971A + H972L + Q975G (Homo sapiens) (UniProt Q14671)
# T7 sequence: T2 sequence with V72N, F73Y, T108C, H109R, E112Q, T144A, F145L, R148G
# [8] = biological target: T8, PUM1 PUF domain R4-ALS N971A + H972L + Q975S (Homo sapiens) (UniProt Q14671)
# T8 sequence: T2 sequence with V72N, F73Y, T108C, H109R, E112Q, T144A, F145L, R148S
# [9] = biological target: T9, PUM1 PUF domain R4-ALY N971A + H972L + Q975Y (UniProt Q14671)
# T9 sequence: T2 sequence with V72N, F73Y, T108C, H109R, E112Q, T144A, F145L, R148Y
# [10] = biological target: T10, PUM1 PUF domain R4-APF N971A + H972P + Q975F (Homo sapiens) (UniProt Q14671)
# T10 sequence: T2 sequence with V72N, F73Y, T108C, H109R, E112Q, T144A, F145P, R148F
# [11] = biological target: T11, PUM1 PUF domain R4-AQS N971A + H972Q + Q975S (Homo sapiens) (UniProt Q14671)
# T11 sequence: T2 sequence with V72N, F73Y, T108C, H109R, E112Q, T144A, F145Q, R148S
# [12] = biological target: T12, PUM1 PUF domain R4-AQY N971A + H972Q + Q975Y (UniProt Q14671)
# T12 sequence: T2 sequence with V72N, F73Y, T108C, H109R, E112Q, T144A, F145Q, R148Y
# [13] = biological target: T13, PUM1 PUF domain R4-CGC N971C + H972G + Q975C (Homo sapiens) (UniProt Q14671)
# T13 sequence: T2 sequence with V72N, F73Y, T108C, H109R, E112Q, T144C, F145G, R148C
# [14] = biological target: T14, PUM1 PUF domain R4-CPL N971C + H972P + Q975L (Homo sapiens) (UniProt Q14671)
# T14 sequence: T2 sequence with V72N, F73Y, T108C, H109R, E112Q, T144C, F145P, R148L
# [15] = biological target: T15, PUM1 PUF domain R4-CRG N971C + H972R + Q975G (Homo sapiens) (UniProt Q14671)
# T15 sequence: T2 sequence with V72N, F73Y, T108C, H109R, E112Q, T144C, F145R, R148G
# [16] = biological target: T16, PUM1 PUF domain R4-CRL N971C + H972R + Q975L (Homo sapiens) (UniProt Q14671)
# T16 sequence: T2 sequence with V72N, F73Y, T108C, H109R, E112Q, T144C, F145R, R148L
# [17] = biological target: T17, PUM1 PUF domain R4-CRS N971C + H972R + Q975S (UniProt Q14671)
# T17 sequence: T2 sequence with V72N, F73Y, T108C, H109R, E112Q, T144C, F145R, R148S
# [18] = biological target: T18, PUM1 PUF domain R4-DFL N971D + H972F + Q975L (UniProt Q14671)
# T18 sequence: T2 sequence with V72N, F73Y, T108C, H109R, E112Q, T144D, R148L
# [19] = biological target: T19, PUM1 PUF domain R4-DFT N971D + H972F + Q975T (Homo sapiens) (UniProt Q14671)
# T19 sequence: T2 sequence with V72N, F73Y, T108C, H109R, E112Q, T144D, R148T
# [20] = biological target: T20, PUM1 PUF domain R4-DHG N971D + Q975G (Homo sapiens) (UniProt Q14671)
# T20 sequence: T2 sequence with V72N, F73Y, T108C, H109R, E112Q, T144D, F145H, R148G
# [21] = biological target: T21, PUM1 PUF domain R4-DHL N971D + Q975L (Homo sapiens) (UniProt Q14671)
# T21 sequence: T2 sequence with V72N, F73Y, T108C, H109R, E112Q, T144D, F145H, R148L
# [22] = biological target: T22, PUM1 PUF domain R4-DRC N971D + H972R + Q975C (UniProt Q14671)
# T22 sequence: T2 sequence with V72N, F73Y, T108C, H109R, E112Q, T144D, F145R, R148C
# [23] = biological target: T23, PUM1 PUF domain R4-DRG N971D + H972R + Q975G (Homo sapiens) (UniProt Q14671)
# T23 sequence: T2 sequence with V72N, F73Y, T108C, H109R, E112Q, T144D, F145R, R148G
# [24] = biological target: T24, PUM1 PUF domain R4-DRI N971D + H972R + Q975I (Homo sapiens) (UniProt Q14671)
# T24 sequence: T2 sequence with V72N, F73Y, T108C, H109R, E112Q, T144D, F145R, R148I
# [25] = biological target: T25, PUM1 PUF domain R4-DWV N971D + H972W + Q975V (Homo sapiens) (UniProt Q14671)
# T25 sequence: T2 sequence with V72N, F73Y, T108C, H109R, E112Q, T144D, F145W, R148V
# [26] = biological target: T26, PUM1 PUF domain R4-EFG N971E + H972F + Q975G (Homo sapiens) (UniProt Q14671)
# T26 sequence: T2 sequence with V72N, F73Y, T108C, H109R, E112Q, T144E, R148G
# [27] = biological target: T27, PUM1 PUF domain R4-EPG N971E + H972P + Q975G (Homo sapiens) (UniProt Q14671)
# T27 sequence: T2 sequence with V72N, F73Y, T108C, H109R, E112Q, T144E, F145P, R148G
# [28] = biological target: T28, PUM1 PUF domain R4-EPS N971E + H972P + Q975S (Homo sapiens) (UniProt Q14671)
# T28 sequence: T2 sequence with V72N, F73Y, T108C, H109R, E112Q, T144E, F145P, R148S
sequence,measurement,setting,value
GGCUAGAACUAGUGGAUCCCCCGGCGCCCGGCGGCUCGAGCCCGGGUAAGUGUACAUAGUCUGCAUGCCGCCGGGCGCCAUGCCUGCAGGUCGACUCUAGAAAACAUG,binding signal (log2 enrichment (interaction score)),[1],-6.11
same,binding signal (log2 enrichment (interaction score)),[2],-5.5
same,binding signal (log2 enrichment (interaction score)),[3],0.16
same,binding signal (log2 enrichment (interaction score)),[4],-0.05
same,binding signal (log2 enrichment (interaction score)),[5],< -6.73
same,binding signal (log2 enrichment (interaction score)),[6],-3.44
same,binding signal (log2 enrichment (interaction score)),[7],-2.39
same,binding signal (log2 enrichment (interaction score)),[8],-4.38
same,binding signal (log2 enrichment (interaction score)),[9],< -6.6
same,binding signal (log2 enrichment (interaction score)),[10],-0.81
same,binding signal (log2 enrichment (interaction score)),[11],-1.89
same,binding signal (log2 enrichment (interaction score)),[12],< -5.01
same,binding signal (log2 enrichment (interaction score)),[13],-0.37
same,binding signal (log2 enrichment (interaction score)),[14],-1.02
same,binding signal (log2 enrichment (interaction score)),[15],-1.25
same,binding signal (log2 enrichment (interaction score)),[16],-1.31
same,binding signal (log2 enrichment (interaction score)),[17],< -6.7
same,binding signal (log2 enrichment (interaction score)),[18],-5.8
same,binding signal (log2 enrichment (interaction score)),[19],-0.91
same,binding signal (log2 enrichment (interaction score)),[20],-2.99
same,binding signal (log2 enrichment (interaction score)),[21],-0.06
same,binding signal (log2 enrichment (interaction score)),[22],< -7.23
same,binding signal (log2 enrichment (interaction score)),[23],-2.34
same,binding signal (log2 enrichment (interaction score)),[24],-2.66
same,binding signal (log2 enrichment (interaction score)),[25],1.05
same,binding signal (log2 enrichment (interaction score)),[26],-0.43
same,binding signal (log2 enrichment (interaction score)),[27],-2.67
same,binding signal (log2 enrichment (interaction score)),[28],-2.06

# Reprinted from the results shown for reference:
sequence,measurement,setting,value
GGCUAGAACUAGUGGAUCCCCCGGCGCCCGGCGGCUCGAGCCCGGGUAAGUGUACAUAGUCUGCAUGCCGCCGGGCGCCAUGCCUGCAGGUCGACUCUAGAAAACAUG,binding signal (log2 enrichment (interaction score)),[4],-0.05
same,binding signal (log2 enrichment (interaction score)),[5],< -6.73
